Data: publication PMC5452337
Results are given in words; binding and its absence hold for the method and conditions named. In cells and extracts the contact can be indirect. Binding can be weak; no strength is given.

Chains of the proteins cited; added tags and fusions are not shown. Lines headed by an entry give the natural chain unless they say otherwise; changes in a name come on top.
UniProt Q9Z0U4: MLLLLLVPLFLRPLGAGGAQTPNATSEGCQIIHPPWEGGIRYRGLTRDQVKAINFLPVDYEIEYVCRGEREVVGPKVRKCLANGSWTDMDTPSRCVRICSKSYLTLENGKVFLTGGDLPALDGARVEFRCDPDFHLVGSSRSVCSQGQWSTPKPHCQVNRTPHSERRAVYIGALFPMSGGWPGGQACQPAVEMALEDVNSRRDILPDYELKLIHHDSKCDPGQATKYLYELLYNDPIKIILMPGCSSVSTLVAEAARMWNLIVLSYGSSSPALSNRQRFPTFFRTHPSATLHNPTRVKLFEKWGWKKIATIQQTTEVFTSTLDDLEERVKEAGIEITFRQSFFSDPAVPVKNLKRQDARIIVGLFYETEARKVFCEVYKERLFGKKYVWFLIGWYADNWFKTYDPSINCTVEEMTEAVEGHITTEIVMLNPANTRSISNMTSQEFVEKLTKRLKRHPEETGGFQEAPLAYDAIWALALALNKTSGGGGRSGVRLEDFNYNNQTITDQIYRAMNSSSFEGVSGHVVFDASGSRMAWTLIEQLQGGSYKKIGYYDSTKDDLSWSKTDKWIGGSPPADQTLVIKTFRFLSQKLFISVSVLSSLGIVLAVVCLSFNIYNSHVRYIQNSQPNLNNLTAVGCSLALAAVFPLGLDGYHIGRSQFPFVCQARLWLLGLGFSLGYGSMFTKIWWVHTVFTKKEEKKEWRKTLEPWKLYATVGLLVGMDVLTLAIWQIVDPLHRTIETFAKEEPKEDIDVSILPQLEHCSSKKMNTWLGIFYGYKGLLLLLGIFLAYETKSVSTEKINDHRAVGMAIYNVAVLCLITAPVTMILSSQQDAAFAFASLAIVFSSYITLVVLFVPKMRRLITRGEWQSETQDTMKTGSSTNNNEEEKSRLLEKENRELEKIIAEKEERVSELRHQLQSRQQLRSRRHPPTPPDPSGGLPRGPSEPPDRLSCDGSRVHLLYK

Target: GABAB receptor subunit 1, splice isoform GABABR1b (rat (endogenous in organotypic hippocampal slices)) (UniProt Q9Z0U4)
Assay: co-IP; lysates of rat organotypic hippocampal slices in CHAPS buffer (50 mM Tris pH 7.5, 150 mM NaCl, 5 mM EDTA, 0.5% CHAPS); precipitation with anti-GABABR1 or anti-KCC2, Protein A/G agarose, immunoblot; IgG controls; also slices treated with SKF97541 (amount of KCC2 in GABABR1 complexes not changed)

binding: binds
B1: potassium-chloride cotransporter KCC2 (protein, UniProt Q63633 1-1139)
chain: MSRRFTVTSLPPAASAASADPESRRHSVADPRRLPREDVKGDGNPKESSPFINSTDTEKGREYDGRNMALFEEEMDTSPMVSSLLSGLANYTNLPQGSKEHEEAENNEGGKKKPVQAPRMGTFMGVYLPCLQNIFGVILFLRLTWVVGIAGIMESFCMVFICCSCTMLTAISMSAIATNGVVPAGGSYYMISRSLGPEFGGAVGLCFYLGTTFAGAMYILGTIEILLAYLFPAMAIFKAEDASGEAAAMLNNMRVYGTCVLTCMATVVFVGVKYVNKFALVFLGCVILSILAIYAGVIKSAFDPPNFPICLLGNRTLSRHGFDVCAKLAWEGNETVTTRLWGLFCSSRLLNATCDEYFTRNNVTEIQGIPGAASGLIKENLWSSYLTKGVIVERRGMPSVGLADGTPVDMDHPYVFSDMTSYFTLLVGIYFPSVTGIMAGSNRSGDLRDAQKSIPTGTILAIATTSAVYISSVVLFGACIEGVVLRDKFGEAVNGNLVVGTLAWPSPWVIVIGSFFSTCGAGLQSLTGAPRLLQAISRDGIVPFLQVFGHGKANGEPTWALLLTACICEIGILIASLDEVAPILSMFFLMCYMFVNLACAVQTLLRTPNWRPRFRYYHWTLSFLGMSLCLALMFICSWYYALVAMLIAGLIYKYIEYRGAEKEWGDGIRGLSLSAARYALLRLEEGPPHTKNWRPQLLVLVRVDQDQNVVHPQLLSLTSQLKAGKGLTIVGSVLEGTFLDNHPQAQRAEESIRRLMEAEKVKGFCQVVISSNLRDGVSHLIQSGGLGGLQHNTVLVGWPRNWRQKEDHQTWRNFIELVRETTAGHLALLVTKNVSMFPGNPERFSEGSIDVWWIVHDGGMLMLLPFLLRHHKVWRKCKMRIFTVAQMDDNSIQMKKDLTTFLYHLRITAEVEVVEMHESDISAYTYEKTLVMEQRSQILKQMHLTKNEREREIQSITDESRGSIRRKNPANTRLRLNVPEETACDNEEKPEEEVQLIHDQSAPSCPSSSPSPGEEPEGEGETDPEKVHLTWTKDKSAAQKNKGPSPVSSEGIKDFFSMKPEWENLNQSNVRRMHTAVRLNEVIVNKSRDAKLVLLNMPGPPRNRNGDENYMEFLEVLTEQLDRVMLVRGGGREVITIYS
